This assay has as its target T1, protein A-colloidal gold complex (UniProt P38507 37-477, colloidal gold conjugate).
T1 construct: Detection reagent, used alone as a control; also called protein A-gold complex
Briefly: post-embedding immunogold labeling of BASMC culture sections, TEM.

B1: Rat osteopontin purified from the conditioned medium of rat neonatal smooth muscle cell cultures (other, UniProt P08721 17-317, looked up)
chain: LPVKVAEFGSSEEKAHYSKHSDAVATWLKPDPSQKQNLLAPQNSVSSEETDDFKQETLPSNSNESHDHMDDDDDDDDDGDHAESEDSVNSDESDESHHSDESDESFTASTQADVLTPIAPTVDVPDGRGDSLAYGLRSKSRSFPVSDEQYPDATDEDLTSRMKSQESDEAIKVIPVAQRLSVPSDQDSNGKTSHESSQLDEPSVETHSLEQSKEYKQRASHESTEQSDAIDSAEKPDAIDSAERSDAIDSQASSKASLEHQSHEFHSHEDKLVLDPKSKEDDRYLKFRISHELESSSSEVN
notes: mature; Native secreted, post-translationally modified protein; also called OPN
Take B1: the binding result is on record as “no binding”.

The values above are taken from patent US20030158113A1 (University of Washington, published 2003).
